Taken from: PubChem BioAssay AID1053209 (Peter MacCallum Cancer Centre, 2014)
The whole screen tested about 1,580 reagents; this is an unselected part. Over the whole deposit, 207 (13%) are marked active. 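Rows are single siRNAs; four siRNAs per gene were tested, a gene counting as confirmed only when at least two agree.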 A number with no mark means an inactive call. The numbers tell different reagents against one gene apart.

Purpose: 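Gene losses that combine with doxorubicin to kill mouse bone cancer cells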 (follow-up of hits)
Cells: mouse primary osteosarcoma cells
Knock-down reagent: single siRNA against mouse genes, 25 nM (text also states 40 nM)
Time to read-out: about 120 h (48 h before drug, then 72 h with drug)
Conditions: doxorubicin 100 nM (about IC30-40), added 48 h after transfection, for 72 h
Measurement: 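Viability measured by ATP luminescence with and without doxorubicin, each replicate scaled to non-targeting siRNA NT1, averaged over two replicates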
Reading the numbers: viability with doxorubicin, vs NT1: higher = more viable cells under doxorubicin; viability ratio, doxorubicin over no drug: higher = less sensitisation to doxorubicin; viability without drug, vs NT1: higher = more viable cells without drug
Rule for the call: 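Active when doxorubicin viability is at most 0.7 of NT1 and drug-free viability lies between 0.7 and 1.1, class LC dox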

gene knocked down,reagent no.,combined effect class,"viability with doxorubicin, vs NT1","viability ratio, doxorubicin over no drug","viability without drug, vs NT1"
Kctd12,1,low viability only with doxorubicin; normal without drug (active),0.62,0.84,0.74
Kctd12,2,normal viability with and without drug,1.03,1.01,1.02
Kctd12,3,normal viability with and without drug,0.97,0.93,1.04
Kctd12,4,high viability only with doxorubicin,1.12,1.06,1.06
Tssk1,1,normal viability with and without drug,0.98,1.07,0.92
Tssk1,2,high viability with and without drug,1.14,1.04,1.1
Tssk1,3,normal viability with and without drug,0.72,0.75,0.96
Tssk1,4,normal viability with and without drug,0.99,1.01,0.98
Sf3b2,1,low viability only with doxorubicin; normal without drug (active),0.41,0.52,0.79
Sf3b2,2,low viability with and without drug,0.26,0.42,0.62
Sf3b2,3,low viability with and without drug,0.26,0.76,0.34
Sf3b2,4,low viability with and without drug,0.4,0.67,0.6
Timm44,1,normal viability with and without drug,0.94,1,0.94
Timm44,2,normal viability with and without drug,0.8,1.01,0.79
Timm44,3,normal viability with and without drug,0.84,1.02,0.82
Timm44,4,normal viability with and without drug,0.91,0.98,0.93
Sf3a2,1,low viability only with doxorubicin; normal without drug (active),0.58,0.69,0.84
Sf3a2,2,low viability with and without drug,0.23,0.37,0.62
Sf3a2,3,low viability only with doxorubicin; normal without drug (active),0.23,0.29,0.78
Sf3a2,4,low viability only with doxorubicin; normal without drug (active),0.48,0.63,0.76

Already shown: entries from further up.
gene knocked down,reagent no.,combined effect class,"viability with doxorubicin, vs NT1","viability ratio, doxorubicin over no drug","viability without drug, vs NT1"
Timm44,4,normal viability with and without drug,0.91,0.98,0.93
Sf3a2,1,low viability only with doxorubicin; normal without drug (active),0.58,0.69,0.84

Continued.
gene knocked down,reagent no.,combined effect class,"viability with doxorubicin, vs NT1","viability ratio, doxorubicin over no drug","viability without drug, vs NT1"
Coq3,1,high viability only with doxorubicin,1.1,1.01,1.09
Coq3,2,high viability only with doxorubicin,1.1,1.1,1
Coq3,3,normal viability with and without drug,0.8,0.96,0.83
Coq3,4,normal viability with and without drug,0.79,0.92,0.86
Rpl31,1,high viability with and without drug,1.25,1.12,1.12
Rpl31,2,low viability with and without drug,0.33,0.65,0.51
Rpl31,3,low viability only with doxorubicin; normal without drug (active),0.68,0.79,0.86
Rpl31,4,low viability with and without drug,0.3,0.68,0.44
Eif4a3,1,low viability only with doxorubicin; normal without drug (active),0.61,0.61,1
Eif4a3,2,low viability with and without drug,0.14,0.25,0.57
Eif4a3,3,low viability only with doxorubicin; normal without drug (active),0.38,0.48,0.8
Eif4a3,4,low viability with and without drug,0.25,0.43,0.58
Eif3e,1,low viability with and without drug,0.52,1.06,0.49
Eif3e,2,low viability with and without drug,0.54,0.98,0.55
Eif3e,3,low viability with and without drug,0.54,0.79,0.68
Eif3e,4,normal viability with and without drug,0.91,0.97,0.94
Slc16a6,1,normal viability with and without drug,0.78,0.89,0.88
Slc16a6,2,normal viability with and without drug,0.98,0.96,1.02
Slc16a6,3,normal viability with and without drug,0.92,0.94,0.98
Slc16a6,4,normal viability with and without drug,0.99,0.97,1.02
